{"source": "PubChem BioAssay AID720710 (VTT Finland, 2013)", "purpose": "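Genes whose loss lowers DNA synthesis when an oncogene drives replication stress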 (primary screen)", "cells": "human U-2 OS bone cancer cells, parental and a cyclin E (CCNE1) overexpressing line", "reagents": "single siRNA against human genes, 1 µM siRNA in the printed spot mix", "time to read-out": "67 h", "challenge": "half the arrays: hydroxyurea 2 mM for 16 h, then 3 h recovery; other arrays untreated", "measured": "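EdU click signal imaged per DAPI-stained nucleus at 67 h; each spot divided by its subgrid median, then z-scored relative to non-targeting control spots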", "reading the numbers": "EdU z-score, cyclin E line, hydroxyurea and EdU z-score, parental, hydroxyurea: higher = more DNA synthesis than non-targeting controls", "note": "Here is one part, drawn at random, of about 1,380 reagents. 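One array per condition without replicates; hydroxyurea arrays received 2 mM for 16 h plus 3 h recovery.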 The numbers tell different reagents against one gene apart. Further read-outs or replicates are left out here. No sequences are given here."}
{"target": "TERF2IP", "siRNA no.": 1, "EdU z-score, cyclin E line, hydroxyurea": -0.543, "EdU z-score, parental, hydroxyurea": -1.2}
{"target": "TERF2IP", "siRNA no.": 2, "EdU z-score, cyclin E line, hydroxyurea": 0.648, "EdU z-score, parental, hydroxyurea": 4.4}
{"target": "GTF2H1", "siRNA no.": 1, "EdU z-score, cyclin E line, hydroxyurea": -1.4, "EdU z-score, parental, hydroxyurea": -1.11}
{"target": "GTF2H1", "siRNA no.": 2, "EdU z-score, cyclin E line, hydroxyurea": -0.884, "EdU z-score, parental, hydroxyurea": -0.869}
{"target": "RNF2", "siRNA no.": 1, "EdU z-score, cyclin E line, hydroxyurea": -0.0135, "EdU z-score, parental, hydroxyurea": -2.28}
{"target": "RNF2", "siRNA no.": 2, "EdU z-score, cyclin E line, hydroxyurea": 3.05, "EdU z-score, parental, hydroxyurea": 1.95}
{"target": "EEF1E1", "siRNA no.": 1, "EdU z-score, cyclin E line, hydroxyurea": -2.5, "EdU z-score, parental, hydroxyurea": -2.75}
{"target": "EEF1E1", "siRNA no.": 2, "EdU z-score, cyclin E line, hydroxyurea": 1.22, "EdU z-score, parental, hydroxyurea": -1.62}
{"target": "PARG", "siRNA no.": 1, "EdU z-score, cyclin E line, hydroxyurea": -0.0504, "EdU z-score, parental, hydroxyurea": 0.945}
{"target": "PARG", "siRNA no.": 2, "EdU z-score, cyclin E line, hydroxyurea": 0.209, "EdU z-score, parental, hydroxyurea": 2.73}
{"target": "CBX5", "siRNA no.": 1, "EdU z-score, cyclin E line, hydroxyurea": 1.6, "EdU z-score, parental, hydroxyurea": 1.97}
{"target": "CBX5", "siRNA no.": 2, "EdU z-score, cyclin E line, hydroxyurea": 2.76, "EdU z-score, parental, hydroxyurea": 2.6}
{"target": "WRNIP1", "siRNA no.": 1, "EdU z-score, cyclin E line, hydroxyurea": -0.792, "EdU z-score, parental, hydroxyurea": -1.67}
{"target": "WRNIP1", "siRNA no.": 2, "EdU z-score, cyclin E line, hydroxyurea": -0.374, "EdU z-score, parental, hydroxyurea": -1.29}

Ordered by “EdU z-score, parental, hydroxyurea” (high to low): some entries from above.
{"target": "RNF2", "siRNA no.": 2, "EdU z-score, cyclin E line, hydroxyurea": 3.05, "EdU z-score, parental, hydroxyurea": 1.95}
{"target": "EEF1E1", "siRNA no.": 2, "EdU z-score, cyclin E line, hydroxyurea": 1.22, "EdU z-score, parental, hydroxyurea": -1.62}
{"target": "RNF2", "siRNA no.": 1, "EdU z-score, cyclin E line, hydroxyurea": -0.0135, "EdU z-score, parental, hydroxyurea": -2.28}
{"target": "EEF1E1", "siRNA no.": 1, "EdU z-score, cyclin E line, hydroxyurea": -2.5, "EdU z-score, parental, hydroxyurea": -2.75}

The results go on:
{"target": "PTMS", "siRNA no.": 1, "EdU z-score, cyclin E line, hydroxyurea": -1.17, "EdU z-score, parental, hydroxyurea": -1.39}
{"target": "PTMS", "siRNA no.": 2, "EdU z-score, cyclin E line, hydroxyurea": 0.509, "EdU z-score, parental, hydroxyurea": 1.72}
{"target": "ZW10", "siRNA no.": 1, "EdU z-score, cyclin E line, hydroxyurea": -1.33, "EdU z-score, parental, hydroxyurea": -2.57}
{"target": "ZW10", "siRNA no.": 2, "EdU z-score, cyclin E line, hydroxyurea": -1.27, "EdU z-score, parental, hydroxyurea": 1.68}
{"target": "APEX1", "siRNA no.": 1, "EdU z-score, cyclin E line, hydroxyurea": -2.14, "EdU z-score, parental, hydroxyurea": -0.599}
{"target": "APEX1", "siRNA no.": 2, "EdU z-score, cyclin E line, hydroxyurea": 0.881, "EdU z-score, parental, hydroxyurea": 2.68}
{"target": "CDC23", "siRNA no.": 1, "EdU z-score, cyclin E line, hydroxyurea": -0.268, "EdU z-score, parental, hydroxyurea": -2.92}
{"target": "CDC23", "siRNA no.": 2, "EdU z-score, cyclin E line, hydroxyurea": 0.258, "EdU z-score, parental, hydroxyurea": -0.639}
{"target": "CSNK1E", "siRNA no.": 1, "EdU z-score, cyclin E line, hydroxyurea": -1.76, "EdU z-score, parental, hydroxyurea": -3.1}
{"target": "CSNK1E", "siRNA no.": 2, "EdU z-score, cyclin E line, hydroxyurea": 0.421, "EdU z-score, parental, hydroxyurea": 0.952}
{"target": "NCAPD2", "siRNA no.": 1, "EdU z-score, cyclin E line, hydroxyurea": -0.237, "EdU z-score, parental, hydroxyurea": -0.334}
{"target": "NCAPD2", "siRNA no.": 2, "EdU z-score, cyclin E line, hydroxyurea": 0.396, "EdU z-score, parental, hydroxyurea": 4.17}
{"target": "RIF1", "siRNA no.": 1, "EdU z-score, cyclin E line, hydroxyurea": -0.31, "EdU z-score, parental, hydroxyurea": 0.449}
{"target": "RIF1", "siRNA no.": 2, "EdU z-score, cyclin E line, hydroxyurea": 0.0724, "EdU z-score, parental, hydroxyurea": 1.91}
{"target": "PML", "siRNA no.": 1, "EdU z-score, cyclin E line, hydroxyurea": -0.963, "EdU z-score, parental, hydroxyurea": 0.2}
{"target": "PML", "siRNA no.": 2, "EdU z-score, cyclin E line, hydroxyurea": 0.0565, "EdU z-score, parental, hydroxyurea": 4.28}
{"target": "RRM2B", "siRNA no.": 1, "EdU z-score, cyclin E line, hydroxyurea": -0.346, "EdU z-score, parental, hydroxyurea": -2.11}
{"target": "RRM2B", "siRNA no.": 2, "EdU z-score, cyclin E line, hydroxyurea": -0.0149, "EdU z-score, parental, hydroxyurea": 0.00916}
